Source: PMC6240084
Results are given in words; binding and its absence hold for the method and conditions named. In cells and extracts the contact can be indirect. Some results given as binding are weak or reduced against the parent protein; the word gives no strength.

Chains of the proteins cited; added tags and fusions are not shown. Lines headed by an entry give the natural chain unless they say otherwise; changes in a name come on top. A line that says so, or that is headed by a name, gives the form on record, which may keep a tag or linker.
UniProt Q9UNE7: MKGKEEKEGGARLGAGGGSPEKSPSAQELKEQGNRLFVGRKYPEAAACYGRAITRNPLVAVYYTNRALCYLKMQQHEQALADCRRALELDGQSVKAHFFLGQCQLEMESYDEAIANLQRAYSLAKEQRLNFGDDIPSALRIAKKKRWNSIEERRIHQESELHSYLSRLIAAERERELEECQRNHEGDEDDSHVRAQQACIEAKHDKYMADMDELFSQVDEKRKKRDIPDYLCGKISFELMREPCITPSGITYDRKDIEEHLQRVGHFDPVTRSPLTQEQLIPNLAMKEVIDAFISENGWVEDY
UniProt P0DMV9: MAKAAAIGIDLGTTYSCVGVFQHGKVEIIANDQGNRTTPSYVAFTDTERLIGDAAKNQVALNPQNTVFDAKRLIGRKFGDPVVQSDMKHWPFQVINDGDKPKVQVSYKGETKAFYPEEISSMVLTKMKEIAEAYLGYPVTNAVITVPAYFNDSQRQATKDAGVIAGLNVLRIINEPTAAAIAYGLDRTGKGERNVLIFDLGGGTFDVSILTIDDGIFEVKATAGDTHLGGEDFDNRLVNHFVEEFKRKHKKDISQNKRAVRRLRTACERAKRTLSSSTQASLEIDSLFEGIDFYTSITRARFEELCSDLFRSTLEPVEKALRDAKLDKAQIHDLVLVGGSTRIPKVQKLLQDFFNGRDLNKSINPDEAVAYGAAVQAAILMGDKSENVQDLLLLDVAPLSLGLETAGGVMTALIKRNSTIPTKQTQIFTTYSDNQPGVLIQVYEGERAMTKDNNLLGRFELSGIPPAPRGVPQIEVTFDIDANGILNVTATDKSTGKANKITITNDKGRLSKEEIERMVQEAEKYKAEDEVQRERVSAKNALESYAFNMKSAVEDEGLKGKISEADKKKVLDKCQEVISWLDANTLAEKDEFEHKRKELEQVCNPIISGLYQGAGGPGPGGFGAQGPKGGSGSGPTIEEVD
UniProt P10275: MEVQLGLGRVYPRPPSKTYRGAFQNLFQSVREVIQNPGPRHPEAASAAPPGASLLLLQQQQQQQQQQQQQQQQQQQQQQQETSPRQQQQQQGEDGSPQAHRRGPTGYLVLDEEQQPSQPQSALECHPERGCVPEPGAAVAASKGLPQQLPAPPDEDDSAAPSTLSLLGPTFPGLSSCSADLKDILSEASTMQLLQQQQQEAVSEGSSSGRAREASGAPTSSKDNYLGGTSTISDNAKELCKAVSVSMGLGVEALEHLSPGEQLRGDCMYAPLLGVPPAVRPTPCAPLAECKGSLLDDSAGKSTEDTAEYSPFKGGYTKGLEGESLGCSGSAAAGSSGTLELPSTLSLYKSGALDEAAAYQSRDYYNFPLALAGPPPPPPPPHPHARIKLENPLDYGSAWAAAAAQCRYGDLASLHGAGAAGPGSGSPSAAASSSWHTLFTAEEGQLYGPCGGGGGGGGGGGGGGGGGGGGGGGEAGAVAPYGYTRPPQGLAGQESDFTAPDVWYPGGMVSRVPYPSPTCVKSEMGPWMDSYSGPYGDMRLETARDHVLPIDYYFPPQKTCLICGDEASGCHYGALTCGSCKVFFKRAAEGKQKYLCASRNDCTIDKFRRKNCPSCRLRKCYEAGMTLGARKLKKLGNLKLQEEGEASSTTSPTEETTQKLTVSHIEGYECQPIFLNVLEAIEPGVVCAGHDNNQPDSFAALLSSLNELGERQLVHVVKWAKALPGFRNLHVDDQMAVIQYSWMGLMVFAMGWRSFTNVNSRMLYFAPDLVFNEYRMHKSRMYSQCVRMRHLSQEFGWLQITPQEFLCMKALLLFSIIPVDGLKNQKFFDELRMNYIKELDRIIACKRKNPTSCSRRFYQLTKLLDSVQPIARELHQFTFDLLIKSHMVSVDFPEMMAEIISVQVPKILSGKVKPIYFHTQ
AR-V7 (P10275-3, form named): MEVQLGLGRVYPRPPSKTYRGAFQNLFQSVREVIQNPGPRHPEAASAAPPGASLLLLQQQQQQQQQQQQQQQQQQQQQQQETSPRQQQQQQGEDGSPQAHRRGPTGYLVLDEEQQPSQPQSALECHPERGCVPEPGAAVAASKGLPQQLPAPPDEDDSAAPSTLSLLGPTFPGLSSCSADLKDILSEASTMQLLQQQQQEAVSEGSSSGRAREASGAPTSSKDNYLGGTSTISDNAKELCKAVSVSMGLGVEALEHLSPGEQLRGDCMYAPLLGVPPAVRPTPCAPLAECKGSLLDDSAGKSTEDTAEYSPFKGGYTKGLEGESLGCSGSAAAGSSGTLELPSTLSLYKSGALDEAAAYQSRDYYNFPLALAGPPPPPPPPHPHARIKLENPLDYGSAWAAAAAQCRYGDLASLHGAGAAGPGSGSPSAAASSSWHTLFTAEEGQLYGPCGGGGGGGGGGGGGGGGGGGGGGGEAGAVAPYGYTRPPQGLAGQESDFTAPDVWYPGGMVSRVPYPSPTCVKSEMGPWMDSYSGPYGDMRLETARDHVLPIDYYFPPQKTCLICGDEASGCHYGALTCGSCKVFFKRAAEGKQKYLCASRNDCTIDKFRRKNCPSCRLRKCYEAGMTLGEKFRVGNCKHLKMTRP

Experiments:
Flag-STUB1 [1] = biological target: Flag-STUB1 (UniProt Q9UNE7); assay: co-IP; 293 cells transiently transfected with Flag-STUB1 or HSP70 with or without AR-FL, AR-V1, AR-V3, AR-V7, AR-V9 or AR-V12 for 3 days; whole cell lysates (1500 µg) immunoprecipitated with anti-Flag or anti-HSP70 antibody and protein A/G agarose overnight; washed with 10 mM HEPES pH 7.9, 1 mM EDTA, 150 mM NaCl, 1% Nonidet P-40; western blot
[2] = biological target: HSP70 (HSPA1B, OriGene, Catalog# SC116767) (UniProt P0DMV9); assay: as above
[3] = biological target: HSP70 (HSPA1B, OriGene, Catalog# SC116767) (UniProt P0DMV9); assay: co-IP; 293 cells co-transfected with HSP70 and AR-V7 (or AR-FL) with or without Flag-STUB1 for 3 days; whole cell lysates immunoprecipitated with anti-HSP70 antibody; western blot
Flag-STUB1 [4] = biological target: Flag-STUB1 (UniProt Q9UNE7); assay: co-IP; 293 cells co-transfected with Flag-STUB1, AR-V7 and HA-Ub with or without HSP70 for 3 days; whole cell lysates immunoprecipitated with anti-Flag antibody; western blot; also AR-V7, HSP70 and Flag-STUB1 overexpressed and cells treated with APO or VER overnight (the inhibitors increased the binding)

Substance	binding (Flag-STUB1 [1])	binding [2]	binding [3]	binding (Flag-STUB1 [4])
AR-FL (full-length AR) (from UniProt P10275 1-920) (receptor)	binds	binds	binds	–
AR-V7 (from UniProt P10275-3 1-644)	binds	binds	binds	binds
Flag-STUB1 (from UniProt Q9UNE7 1-303) (enzyme)	–	binds	–	–
